Data reported in the supplement of paper PMC11732987, “Enantioselective OTUD7B fragment discovery through chemoproteomics screening and high-throughput optimisation” (Communications Chemistry, 2025).
The list shows a part of the results. The data scatter; read single values as rough.

Sequences of proteins named here, by UniProt entry; tags and fusion partners are left off. A change or cut given only in a name is not applied to a line headed by its entry. Residues count along the entry.
UniProt Q9C0D5, 1630-1655: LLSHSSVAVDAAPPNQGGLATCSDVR
UniProt Q9UGI8: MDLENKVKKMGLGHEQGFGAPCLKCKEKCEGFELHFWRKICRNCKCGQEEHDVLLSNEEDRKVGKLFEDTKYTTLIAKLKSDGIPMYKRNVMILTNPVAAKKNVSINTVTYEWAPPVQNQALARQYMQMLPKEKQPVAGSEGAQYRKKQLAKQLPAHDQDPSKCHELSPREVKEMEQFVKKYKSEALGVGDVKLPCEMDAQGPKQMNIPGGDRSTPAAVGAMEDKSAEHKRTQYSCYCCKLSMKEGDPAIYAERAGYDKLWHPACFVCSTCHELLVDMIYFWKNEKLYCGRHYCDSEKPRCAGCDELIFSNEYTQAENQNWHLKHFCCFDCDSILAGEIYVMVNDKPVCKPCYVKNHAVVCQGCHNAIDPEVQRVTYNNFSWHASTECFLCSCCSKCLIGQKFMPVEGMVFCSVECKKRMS
UniProt Q17R31, 207-226: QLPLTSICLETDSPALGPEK
UniProt Q01664, 23-42: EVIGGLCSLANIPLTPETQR
UniProt O60343: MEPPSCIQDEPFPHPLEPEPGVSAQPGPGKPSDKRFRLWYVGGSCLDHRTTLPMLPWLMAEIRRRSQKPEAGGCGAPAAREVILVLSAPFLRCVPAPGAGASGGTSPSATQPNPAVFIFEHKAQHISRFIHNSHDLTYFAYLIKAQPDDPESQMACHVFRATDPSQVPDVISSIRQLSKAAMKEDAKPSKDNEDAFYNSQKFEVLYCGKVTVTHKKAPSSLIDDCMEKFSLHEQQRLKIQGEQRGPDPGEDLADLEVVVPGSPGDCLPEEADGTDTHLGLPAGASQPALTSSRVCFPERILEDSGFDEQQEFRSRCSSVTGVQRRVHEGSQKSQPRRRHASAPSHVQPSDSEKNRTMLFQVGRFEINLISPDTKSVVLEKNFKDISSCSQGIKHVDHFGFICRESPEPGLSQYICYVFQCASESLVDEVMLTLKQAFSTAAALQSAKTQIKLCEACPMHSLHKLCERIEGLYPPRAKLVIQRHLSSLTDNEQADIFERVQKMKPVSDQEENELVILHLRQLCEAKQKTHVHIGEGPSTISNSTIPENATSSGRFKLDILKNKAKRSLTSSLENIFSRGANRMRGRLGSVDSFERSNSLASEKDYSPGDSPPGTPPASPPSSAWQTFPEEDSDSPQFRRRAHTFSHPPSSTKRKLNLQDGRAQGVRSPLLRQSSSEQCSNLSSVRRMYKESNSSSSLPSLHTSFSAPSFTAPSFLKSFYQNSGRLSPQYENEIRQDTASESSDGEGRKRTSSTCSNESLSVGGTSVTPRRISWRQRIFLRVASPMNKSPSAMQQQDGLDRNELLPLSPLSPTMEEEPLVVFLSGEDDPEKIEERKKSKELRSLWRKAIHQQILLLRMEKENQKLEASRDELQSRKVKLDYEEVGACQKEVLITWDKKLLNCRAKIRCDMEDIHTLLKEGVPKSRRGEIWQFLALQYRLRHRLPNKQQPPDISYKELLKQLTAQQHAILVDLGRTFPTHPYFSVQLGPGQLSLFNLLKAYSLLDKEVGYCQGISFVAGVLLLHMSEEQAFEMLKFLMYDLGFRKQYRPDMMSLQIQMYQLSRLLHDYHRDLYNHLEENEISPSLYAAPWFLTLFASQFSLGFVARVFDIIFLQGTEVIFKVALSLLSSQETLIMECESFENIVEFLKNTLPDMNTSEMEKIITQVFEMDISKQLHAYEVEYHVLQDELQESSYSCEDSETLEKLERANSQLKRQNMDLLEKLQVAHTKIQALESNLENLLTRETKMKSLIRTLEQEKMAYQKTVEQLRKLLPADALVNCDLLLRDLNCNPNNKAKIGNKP
UniProt P20226, whole entry, looked up: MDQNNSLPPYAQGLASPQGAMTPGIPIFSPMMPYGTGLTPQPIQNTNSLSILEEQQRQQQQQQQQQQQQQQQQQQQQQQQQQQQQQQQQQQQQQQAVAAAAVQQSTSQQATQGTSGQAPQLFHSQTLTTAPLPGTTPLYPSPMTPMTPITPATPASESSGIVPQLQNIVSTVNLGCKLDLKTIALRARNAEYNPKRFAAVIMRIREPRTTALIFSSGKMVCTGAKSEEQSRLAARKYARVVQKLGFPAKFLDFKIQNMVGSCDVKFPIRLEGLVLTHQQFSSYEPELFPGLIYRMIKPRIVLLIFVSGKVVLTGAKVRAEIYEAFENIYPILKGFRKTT
UniProt O15040: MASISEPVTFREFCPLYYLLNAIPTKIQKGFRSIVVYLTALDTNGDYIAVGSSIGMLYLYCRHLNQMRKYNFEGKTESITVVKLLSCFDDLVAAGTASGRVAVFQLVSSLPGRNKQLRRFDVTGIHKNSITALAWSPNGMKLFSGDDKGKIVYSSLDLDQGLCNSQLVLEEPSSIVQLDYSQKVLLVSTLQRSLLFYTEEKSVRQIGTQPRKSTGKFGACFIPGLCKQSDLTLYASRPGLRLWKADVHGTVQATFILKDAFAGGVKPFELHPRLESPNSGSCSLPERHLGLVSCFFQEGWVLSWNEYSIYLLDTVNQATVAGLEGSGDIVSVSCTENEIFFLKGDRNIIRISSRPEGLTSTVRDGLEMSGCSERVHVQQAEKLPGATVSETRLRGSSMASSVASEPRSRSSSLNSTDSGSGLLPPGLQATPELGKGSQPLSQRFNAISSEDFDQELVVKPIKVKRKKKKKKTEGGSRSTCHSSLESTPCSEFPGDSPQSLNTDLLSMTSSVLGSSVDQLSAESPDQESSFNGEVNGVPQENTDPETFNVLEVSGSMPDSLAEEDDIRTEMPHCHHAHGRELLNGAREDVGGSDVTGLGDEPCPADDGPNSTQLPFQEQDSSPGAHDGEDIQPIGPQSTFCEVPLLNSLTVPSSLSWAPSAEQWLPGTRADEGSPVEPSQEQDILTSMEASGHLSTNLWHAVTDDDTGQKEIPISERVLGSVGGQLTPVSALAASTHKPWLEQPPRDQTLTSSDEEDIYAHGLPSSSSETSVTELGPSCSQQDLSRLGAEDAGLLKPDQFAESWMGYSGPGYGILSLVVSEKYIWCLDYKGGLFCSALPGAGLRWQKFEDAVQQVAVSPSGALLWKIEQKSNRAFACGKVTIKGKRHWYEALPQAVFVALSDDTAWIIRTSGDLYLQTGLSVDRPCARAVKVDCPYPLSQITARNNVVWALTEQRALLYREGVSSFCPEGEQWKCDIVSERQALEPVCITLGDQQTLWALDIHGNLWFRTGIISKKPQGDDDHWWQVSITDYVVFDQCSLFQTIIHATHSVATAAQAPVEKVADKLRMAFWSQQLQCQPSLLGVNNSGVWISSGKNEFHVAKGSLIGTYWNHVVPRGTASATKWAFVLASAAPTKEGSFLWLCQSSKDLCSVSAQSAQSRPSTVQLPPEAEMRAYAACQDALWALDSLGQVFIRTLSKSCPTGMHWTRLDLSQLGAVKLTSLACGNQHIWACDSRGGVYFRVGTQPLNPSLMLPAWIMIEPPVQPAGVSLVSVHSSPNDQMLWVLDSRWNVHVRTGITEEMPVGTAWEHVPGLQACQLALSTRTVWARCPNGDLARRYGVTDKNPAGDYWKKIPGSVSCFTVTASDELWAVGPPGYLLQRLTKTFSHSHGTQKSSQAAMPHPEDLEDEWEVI
UniProt Q03519, whole entry, looked up: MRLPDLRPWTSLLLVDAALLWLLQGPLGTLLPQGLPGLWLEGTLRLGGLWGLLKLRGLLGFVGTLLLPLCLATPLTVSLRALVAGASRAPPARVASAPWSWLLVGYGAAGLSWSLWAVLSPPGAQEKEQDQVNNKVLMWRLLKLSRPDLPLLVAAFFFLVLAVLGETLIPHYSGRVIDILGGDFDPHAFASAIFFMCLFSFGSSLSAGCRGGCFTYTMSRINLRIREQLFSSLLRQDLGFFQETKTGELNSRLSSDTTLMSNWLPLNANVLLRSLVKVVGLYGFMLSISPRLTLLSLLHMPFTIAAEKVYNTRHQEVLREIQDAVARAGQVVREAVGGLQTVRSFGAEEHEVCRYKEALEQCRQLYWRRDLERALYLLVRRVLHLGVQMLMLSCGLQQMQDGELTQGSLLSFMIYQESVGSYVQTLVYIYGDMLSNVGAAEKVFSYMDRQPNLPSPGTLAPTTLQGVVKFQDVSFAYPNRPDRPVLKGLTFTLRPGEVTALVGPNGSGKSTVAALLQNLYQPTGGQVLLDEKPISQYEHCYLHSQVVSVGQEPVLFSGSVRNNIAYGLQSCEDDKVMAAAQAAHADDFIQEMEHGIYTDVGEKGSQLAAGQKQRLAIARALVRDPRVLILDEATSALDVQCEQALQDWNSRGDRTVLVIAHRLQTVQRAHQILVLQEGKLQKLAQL
UniProt Q15813: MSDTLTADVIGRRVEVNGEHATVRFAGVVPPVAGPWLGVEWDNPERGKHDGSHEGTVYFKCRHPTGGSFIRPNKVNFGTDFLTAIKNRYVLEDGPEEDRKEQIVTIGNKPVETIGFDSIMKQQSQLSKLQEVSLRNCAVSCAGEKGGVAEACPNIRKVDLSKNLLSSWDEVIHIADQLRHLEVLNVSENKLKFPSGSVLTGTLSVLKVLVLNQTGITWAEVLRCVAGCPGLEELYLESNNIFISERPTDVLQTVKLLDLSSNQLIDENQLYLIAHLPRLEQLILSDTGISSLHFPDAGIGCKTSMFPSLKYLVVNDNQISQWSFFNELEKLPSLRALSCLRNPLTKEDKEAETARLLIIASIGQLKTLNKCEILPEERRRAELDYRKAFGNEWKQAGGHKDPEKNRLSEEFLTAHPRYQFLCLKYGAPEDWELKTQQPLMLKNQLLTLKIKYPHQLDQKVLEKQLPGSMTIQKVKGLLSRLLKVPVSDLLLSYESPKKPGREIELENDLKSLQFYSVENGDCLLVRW
UniProt Q8IYQ7: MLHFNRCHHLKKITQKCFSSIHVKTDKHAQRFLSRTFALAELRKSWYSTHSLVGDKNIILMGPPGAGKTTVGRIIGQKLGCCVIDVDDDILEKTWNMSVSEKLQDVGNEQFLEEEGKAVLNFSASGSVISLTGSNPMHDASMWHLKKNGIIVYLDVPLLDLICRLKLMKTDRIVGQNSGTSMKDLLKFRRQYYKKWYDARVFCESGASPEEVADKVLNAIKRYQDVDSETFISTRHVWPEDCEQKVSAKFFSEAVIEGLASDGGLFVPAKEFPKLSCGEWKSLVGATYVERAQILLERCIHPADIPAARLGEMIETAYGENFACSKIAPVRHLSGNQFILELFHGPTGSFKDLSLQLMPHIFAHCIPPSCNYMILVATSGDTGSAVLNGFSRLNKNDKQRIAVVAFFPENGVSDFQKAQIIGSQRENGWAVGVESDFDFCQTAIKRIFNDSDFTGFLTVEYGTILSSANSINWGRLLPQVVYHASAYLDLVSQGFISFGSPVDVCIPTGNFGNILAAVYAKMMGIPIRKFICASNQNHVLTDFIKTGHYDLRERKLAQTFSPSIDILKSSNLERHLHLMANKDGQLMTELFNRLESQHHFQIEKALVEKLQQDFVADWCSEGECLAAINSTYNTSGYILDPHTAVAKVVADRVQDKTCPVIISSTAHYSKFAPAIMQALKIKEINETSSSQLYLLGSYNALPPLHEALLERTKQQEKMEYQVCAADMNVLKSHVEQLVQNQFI
UniProt Q9C0B7: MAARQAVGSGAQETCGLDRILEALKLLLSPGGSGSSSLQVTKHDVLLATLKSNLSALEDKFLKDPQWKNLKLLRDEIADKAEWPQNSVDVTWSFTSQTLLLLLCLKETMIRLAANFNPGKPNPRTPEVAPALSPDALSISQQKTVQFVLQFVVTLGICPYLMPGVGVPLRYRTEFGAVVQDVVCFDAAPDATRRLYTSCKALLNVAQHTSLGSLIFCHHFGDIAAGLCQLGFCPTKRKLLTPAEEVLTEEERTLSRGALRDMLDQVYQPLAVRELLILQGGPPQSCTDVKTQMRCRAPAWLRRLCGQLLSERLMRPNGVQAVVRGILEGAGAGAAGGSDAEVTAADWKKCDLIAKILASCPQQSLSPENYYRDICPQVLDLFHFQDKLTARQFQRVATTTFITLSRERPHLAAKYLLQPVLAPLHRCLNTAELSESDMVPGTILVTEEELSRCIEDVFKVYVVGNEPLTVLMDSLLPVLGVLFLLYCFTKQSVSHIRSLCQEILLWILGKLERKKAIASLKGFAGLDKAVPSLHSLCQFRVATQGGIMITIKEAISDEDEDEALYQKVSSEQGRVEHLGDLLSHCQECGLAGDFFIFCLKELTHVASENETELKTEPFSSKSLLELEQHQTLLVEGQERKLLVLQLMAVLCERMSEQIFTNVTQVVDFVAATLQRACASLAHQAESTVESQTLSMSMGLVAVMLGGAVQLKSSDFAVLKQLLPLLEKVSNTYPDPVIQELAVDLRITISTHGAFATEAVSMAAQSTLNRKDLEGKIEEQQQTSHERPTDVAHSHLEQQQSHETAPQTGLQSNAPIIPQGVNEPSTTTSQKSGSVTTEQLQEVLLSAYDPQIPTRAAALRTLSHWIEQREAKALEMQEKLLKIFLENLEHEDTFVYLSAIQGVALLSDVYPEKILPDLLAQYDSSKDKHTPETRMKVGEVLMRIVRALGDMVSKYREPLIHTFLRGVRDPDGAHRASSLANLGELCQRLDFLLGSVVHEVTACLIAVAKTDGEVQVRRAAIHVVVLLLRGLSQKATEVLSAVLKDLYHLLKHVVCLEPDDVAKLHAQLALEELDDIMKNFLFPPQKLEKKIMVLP

compound: ClCC(=O)N[C@H]1CCCc2ccccc12; assay: log2 mean competition ratio of IA-DTB cysteine labelling (DMSO/compound) (log2 ratio); higher = stronger cysteine engagement by compound; conditions: 50 µM; treatment time: 4 h; cell line lysate: HEK293T
Procedure: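 IA-DTB competitive cysteine chemoproteomics in HEK293T RIPA lysate. Lysates were treated with compound 29 or 30 at 50 or 200 µM for 4 h, then IA-DTB (500 µM, 1 h), trypsin-digested, NeutrAvidin-enriched and analysed by diaPASEF. Competition ratio = intensity DMSO / intensity compound (n=4 treated, n=64 DMSO); binding: mean log2 CR ≥ 1 and p ≤ 0.05 plus QC filters. Target is the cysteine site.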

Row | Target | log2 mean competition ratio
1 | TAF1C C831 (UniProt Q15572) | 0.116
2 | TGM2 C230 | -0.0779
3 | TANC1 C1651 (UniProt Q9C0D5) | 0.596
4 | TES C294 (UniProt Q9UGI8) | 0.251
5 | TATDN3 C214 (UniProt Q17R31) | -0.318
6 | SZT2 C1152 (UniProt Q5T011) | -0.314
7 | TERF2 C207 (UniProt Q15554) | 0.214
8 | TET2 C784 (UniProt Q6N021) | -0.246
9 | TARBP1 C443 (UniProt Q13395) | -0.166
10 | TFCP2 C369 (UniProt Q12800) | -0.313
11 | TICRR C1694 (UniProt Q7Z2Z1) | 0.181
12 | TBX2 C311 | 0.0831
13 | TBCD C899 | 0.0438
14 | TCP1 C357 (UniProt P17987) | -0.464
15 | TAF6 C130 (UniProt P49848) | -0.0492
16 | TFAP4 C29 (UniProt Q01664) | 0.0151
17 | TBC1D4 C1286 (UniProt O60343) | -0.106
18 | TASP1 C351 (UniProt Q9H6P5) | -0.214
19 | TDP1 C135 (UniProt Q9NUW8) | 0.346

Row | Target | log2 mean competition ratio
20 | TEPSIN C295 | 0.228
21 | TBP C262 (UniProt P20226) | -0.0773
22 | TFDP2 C329 (UniProt Q14188) | 0.121
23 | TBC1D4 C316 (UniProt O60343) | 0.0718
24 | TELO2 C813 (UniProt Q9Y4R8) | 0.0212
25 | TBL2 C247 (UniProt Q9Y4P3) | 0.15
26 | TECPR2 C282 (UniProt O15040) | 0.00422
27 | THUMPD1 C222 (UniProt Q9NXG2) | -0.596
28 | TAP2 C362 (UniProt Q03519) | -0.353
29 | THUMPD2 C161 (UniProt Q9BTF0) | -0.275
30 | TAX1BP1 C271 (UniProt Q86VP1) | 0.235
31 | TANC2 C507 (UniProt Q9HCD6) | -0.0117
32 | TANC1 C1611 (UniProt Q9C0D5) | -0.0747
33 | TCF20 C868 (UniProt Q9UGU0) | -0.203
34 | TBCE C152 (UniProt Q15813) | -0.202
35 | TEC C495 (UniProt P42680) | -0.355
36 | THNSL1 C324 (UniProt Q8IYQ7) | 0.0675
37 | TANGO6 C286 (UniProt Q9C0B7) | -0.315
38 | TES C46 (UniProt Q9UGI8) | -0.484

same assay, conditions: 200 µM; treatment time: 4 h; cell line lysate: HEK293T

Row | Target | log2 mean competition ratio
39 | TAF1C C831 (UniProt Q15572) | 0.00182
40 | TGM2 C230 | -0.519
41 | TANC1 C1651 (UniProt Q9C0D5) | 0.00345
42 | TES C294 (UniProt Q9UGI8) | -0.167
43 | TATDN3 C214 (UniProt Q17R31) | 0.324
44 | SZT2 C1152 (UniProt Q5T011) | 0.0214
45 | TERF2 C207 (UniProt Q15554) | -0.182
46 | TET2 C784 (UniProt Q6N021) | -0.357
47 | TARBP1 C443 (UniProt Q13395) | -0.196
48 | TFCP2 C369 (UniProt Q12800) | -0.182
49 | TICRR C1694 (UniProt Q7Z2Z1) | 0.245
50 | TBX2 C311 | 0.0727
51 | TBCD C899 | -0.00333
52 | TCP1 C357 (UniProt P17987) | 0.023
53 | TAF6 C130 (UniProt P49848) | 0.136
54 | TFAP4 C29 (UniProt Q01664) | -0.0983
55 | TBC1D4 C1286 (UniProt O60343) | 0.253
56 | TASP1 C351 (UniProt Q9H6P5) | -0.267
57 | TDP1 C135 (UniProt Q9NUW8) | -0.224

Row | Target | log2 mean competition ratio
58 | TEPSIN C295 | 0.255
59 | TBP C262 (UniProt P20226) | 0.000485
60 | TFDP2 C329 (UniProt Q14188) | 0.203
61 | TBC1D4 C316 (UniProt O60343) | 0.207
62 | TELO2 C813 (UniProt Q9Y4R8) | -0.0185
63 | TBL2 C247 (UniProt Q9Y4P3) | 0.172
64 | TECPR2 C282 (UniProt O15040) | -0.304
65 | THUMPD1 C222 (UniProt Q9NXG2) | -0.288
66 | TAP2 C362 (UniProt Q03519) | -0.0604
67 | THUMPD2 C161 (UniProt Q9BTF0) | 0.0197
68 | TAX1BP1 C271 (UniProt Q86VP1) | -0.21
69 | TANC2 C507 (UniProt Q9HCD6) | -0.00804
70 | TANC1 C1611 (UniProt Q9C0D5) | -0.0326
71 | TCF20 C868 (UniProt Q9UGU0) | 0.339
72 | TBCE C152 (UniProt Q15813) | 0.425
73 | TEC C495 (UniProt P42680) | 0.21
74 | THNSL1 C324 (UniProt Q8IYQ7) | 0.297
75 | TANGO6 C286 (UniProt Q9C0B7) | 0.255
76 | TES C46 (UniProt Q9UGI8) | -0.199
